For assay [1], the target named is IMPORTIN-α2:GFP (Arabidopsis thaliana) (UniProt F4JL11). The experiment in a line: co-IP; GFP-tagged importin-α (or YFP) and RFP-tagged protein co-expressed in N. benthamiana, 72 h; leaf extract in 50 mM Tris, 150 mM NaCl, 10% glycerol, 1 mM EDTA, 5 mM DTT, pH 7.5; precipitated with α-GFP-nanobody:Halo:His6 magnetic beads, 2 h at 4°C; α-RFP western blot. (In western blotting, separated proteins are transferred to a membrane and probed.)

Amino acid sequences for entries named in this document (tags omitted). Residues count along the entry.
UniProt F4JL11: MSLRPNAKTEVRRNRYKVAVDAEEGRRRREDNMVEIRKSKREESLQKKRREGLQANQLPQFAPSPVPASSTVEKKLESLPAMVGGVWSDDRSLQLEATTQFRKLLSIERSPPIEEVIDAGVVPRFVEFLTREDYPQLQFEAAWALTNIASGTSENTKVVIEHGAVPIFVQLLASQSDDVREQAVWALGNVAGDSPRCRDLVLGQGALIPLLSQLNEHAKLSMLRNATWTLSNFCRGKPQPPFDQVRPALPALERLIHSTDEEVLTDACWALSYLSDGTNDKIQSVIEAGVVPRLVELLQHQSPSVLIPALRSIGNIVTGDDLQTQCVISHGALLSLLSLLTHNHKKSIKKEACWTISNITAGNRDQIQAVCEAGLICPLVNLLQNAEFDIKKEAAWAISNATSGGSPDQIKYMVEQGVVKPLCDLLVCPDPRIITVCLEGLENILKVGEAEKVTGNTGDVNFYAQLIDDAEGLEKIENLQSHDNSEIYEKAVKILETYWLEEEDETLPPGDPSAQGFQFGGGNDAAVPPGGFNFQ
UniProt O80480: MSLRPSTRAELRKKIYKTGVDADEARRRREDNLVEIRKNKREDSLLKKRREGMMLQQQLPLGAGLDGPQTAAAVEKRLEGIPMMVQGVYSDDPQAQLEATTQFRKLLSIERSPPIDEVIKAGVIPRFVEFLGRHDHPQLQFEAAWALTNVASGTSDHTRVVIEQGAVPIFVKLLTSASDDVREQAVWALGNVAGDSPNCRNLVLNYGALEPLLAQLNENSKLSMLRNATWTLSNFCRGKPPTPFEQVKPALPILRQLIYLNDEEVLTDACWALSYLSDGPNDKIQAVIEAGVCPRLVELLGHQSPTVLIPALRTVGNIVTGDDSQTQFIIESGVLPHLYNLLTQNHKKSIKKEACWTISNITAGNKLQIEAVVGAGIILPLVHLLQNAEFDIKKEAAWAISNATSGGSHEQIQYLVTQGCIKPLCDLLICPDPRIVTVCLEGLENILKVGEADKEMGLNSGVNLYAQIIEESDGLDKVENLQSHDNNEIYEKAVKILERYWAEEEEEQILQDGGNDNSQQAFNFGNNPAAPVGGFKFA
UniProt Q11207: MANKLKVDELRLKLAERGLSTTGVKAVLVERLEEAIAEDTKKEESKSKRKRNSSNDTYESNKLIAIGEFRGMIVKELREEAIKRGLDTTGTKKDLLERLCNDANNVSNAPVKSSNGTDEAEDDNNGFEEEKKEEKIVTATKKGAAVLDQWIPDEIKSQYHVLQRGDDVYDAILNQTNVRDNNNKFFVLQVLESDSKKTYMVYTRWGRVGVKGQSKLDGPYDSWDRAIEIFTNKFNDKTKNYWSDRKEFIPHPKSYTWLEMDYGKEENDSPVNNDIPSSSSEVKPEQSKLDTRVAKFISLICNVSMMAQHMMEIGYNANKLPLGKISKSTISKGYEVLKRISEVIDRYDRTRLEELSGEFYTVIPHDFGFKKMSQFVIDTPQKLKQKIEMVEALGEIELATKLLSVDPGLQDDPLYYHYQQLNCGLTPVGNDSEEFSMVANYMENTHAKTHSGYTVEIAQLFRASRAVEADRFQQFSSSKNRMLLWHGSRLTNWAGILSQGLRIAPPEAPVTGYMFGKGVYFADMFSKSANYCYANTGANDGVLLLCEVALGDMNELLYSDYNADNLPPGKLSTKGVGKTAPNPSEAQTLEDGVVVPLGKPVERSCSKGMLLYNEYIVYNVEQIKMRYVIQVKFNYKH
UniProt M4C4U1, residues 25-285: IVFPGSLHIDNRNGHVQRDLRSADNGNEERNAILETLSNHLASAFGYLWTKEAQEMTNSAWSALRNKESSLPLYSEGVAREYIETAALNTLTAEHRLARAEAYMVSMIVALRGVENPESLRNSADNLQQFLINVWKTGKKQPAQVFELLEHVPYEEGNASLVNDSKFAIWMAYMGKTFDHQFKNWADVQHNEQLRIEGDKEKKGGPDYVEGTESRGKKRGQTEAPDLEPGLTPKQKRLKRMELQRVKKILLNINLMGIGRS

Assay [2] deals with IMPORTIN-α4:GFP (Arabidopsis thaliana) (UniProt O80480). Described as above.

These are yes or no findings as the source states them, for the method shown. In cells and extracts the contact can be indirect. Some results given as binding are weak or reduced against the parent protein; the word gives no strength.

With “PARP2:RFP (Arabidopsis thaliana Poly(ADP-Ribose) Polymerase 2, full length, fused to RFP) (from UniProt Q11207 1-637)”, the binding result in assay [1] and in assay [2] was “binds weakly” each time.
As to “RFP:HaRxL106 (from UniProt M4C4U1 25-285)”, the binding result in assay [1] is on record as “binds”.

The values are drawn from paper PMC6230994.
